Measurements taken from PMC9512010.
Results are given in words; binding and its absence hold for the method and conditions named. Binding seen in cells or lysates may run through a third protein. A result given as binding can be weak or reduced; the word gives no strength.

How the values were obtained:
[1] = target: T1, K+ channel isoform Kv4.3 (rat (endogenous in optic nerve)) (UniProt Q62897); test: co-IP; pre-cleared adult rat optic nerve lysate immunoprecipitated with rabbit polyclonal anti-Kv4.3 or mouse monoclonal anti-CaMKII antibody (Catch and Release v2.0), eluted non-denatured, Western blot; reciprocal
T1 sequence: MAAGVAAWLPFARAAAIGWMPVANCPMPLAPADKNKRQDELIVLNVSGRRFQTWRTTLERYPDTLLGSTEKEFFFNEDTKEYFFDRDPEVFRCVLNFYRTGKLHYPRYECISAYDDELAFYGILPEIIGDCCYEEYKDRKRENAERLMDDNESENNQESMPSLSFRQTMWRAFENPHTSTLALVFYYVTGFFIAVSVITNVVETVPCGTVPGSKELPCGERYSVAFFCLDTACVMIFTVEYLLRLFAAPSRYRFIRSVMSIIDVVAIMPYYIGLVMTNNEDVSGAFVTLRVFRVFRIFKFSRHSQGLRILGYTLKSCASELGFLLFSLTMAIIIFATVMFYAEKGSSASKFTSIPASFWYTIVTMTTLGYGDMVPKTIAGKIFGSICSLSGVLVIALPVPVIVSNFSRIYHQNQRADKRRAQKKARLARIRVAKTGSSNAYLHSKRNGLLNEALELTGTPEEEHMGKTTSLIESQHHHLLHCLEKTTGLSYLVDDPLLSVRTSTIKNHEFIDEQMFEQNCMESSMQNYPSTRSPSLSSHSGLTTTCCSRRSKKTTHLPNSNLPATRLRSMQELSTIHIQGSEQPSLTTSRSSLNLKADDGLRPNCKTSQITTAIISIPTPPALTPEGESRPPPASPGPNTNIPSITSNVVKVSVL

[2] = target: Calcium/calmodulin-dependent protein kinase II (rat (endogenous in optic nerve)); test: as above

Row | Molecule | binding [1] | binding [2]
1 | Calcium/calmodulin-dependent protein kinase II (rat (endogenous in optic nerve)) (enzyme) | binds | 
2 | K+ channel isoform Kv4.3 (protein, UniProt Q62897 1-655) MAAGVAAWLPFARAAAIGWMPVANCPMPLAPADKNKRQDELIVLNVSGRRFQTWRTTLERYPDTLLGSTEKEFFFNEDTKEYFFDRDPEVFRCVLNFYRTGKLHYPRYECISAYDDELAFYGILPEIIGDCCYEEYKDRKRENAERLMDDNESENNQESMPSLSFRQTMWRAFENPHTSTLALVFYYVTGFFIAVSVITNVVETVPCGTVPGSKELPCGERYSVAFFCLDTACVMIFTVEYLLRLFAAPSRYRFIRSVMSIIDVVAIMPYYIGLVMTNNEDVSGAFVTLRVFRVFRIFKFSRHSQGLRILGYTLKSCASELGFLLFSLTMAIIIFATVMFYAEKGSSASKFTSIPASFWYTIVTMTTLGYGDMVPKTIAGKIFGSICSLSGVLVIALPVPVIVSNFSRIYHQNQRADKRRAQKKARLARIRVAKTGSSNAYLHSKRNGLLNEALELTGTPEEEHMGKTTSLIESQHHHLLHCLEKTTGLSYLVDDPLLSVRTSTIKNHEFIDEQMFEQNCMESSMQNYPSTRSPSLSSHSGLTTTCCSRRSKKTTHLPNSNLPATRLRSMQELSTIHIQGSEQPSLTTSRSSLNLKADDGLRPNCKTSQITTAIISIPTPPALTPEGESRPPPASPGPNTNIPSITSNVVKVSVL |  | binds
